# ChEMBL document CHEMBL1687827, “Profiling the Aspergillus fumigatus proteome in response to caspofungin” (2011)
# Further values from the same series stand in other lists.
# What was measured:
# Format in all cases: functional
# Aspergillus fumigatus [1] = assay: Induction of change in 40S ribosomal protein S8e protein level in iTRAQ-118 labelled cell wall fraction of drug-susceptible Aspergillus fumigatus KU80 delta-akuB at 0.12 ug/ml after 24 hrs in YPD medium by MS (MS/MS) analysis relative to control
# Aspergillus fumigatus [2] = assay: Induction of change in glucosamine-fructose-6-phosphate aminotransferase protein level in iTRAQ121 labelled cell wall fraction of drug-susceptible Aspergillus fumigatus KU80 delta-akuB at 0.12 ug/ml after 48 hrs in YPD medium by MS (MS/MS) analysis relative to control
# Aspergillus fumigatus [3] = assay: Induction of change in alanine aminotransferase, putative protein level in iTRAQ-116 labelled secreted fraction of drug-susceptible Aspergillus fumigatus KU80 delta-akuB at 0.12 ug/ml after 48 hrs in YPD medium by MS (MS/MS) analysis relative to control
# Aspergillus fumigatus [4] = assay: Induction of change in NAD-dependent formate dehydrogenase gene expression in drug-susceptible Aspergillus fumigatus KU80 delta-akuB at 0.12 ug/ml after 48 hrs in YPD medium by microarray analysis relative to control
# Aspergillus fumigatus [5] = assay: Induction of change in Ribosomal L15 protein level in iTRAQ114 labelled secreted fraction of drug-susceptible Aspergillus fumigatus KU80 delta-akuB at 0.12 ug/ml after 24 hrs in YPD medium by MS (MS/MS) analysis relative to control
# Aspergillus fumigatus [6] = assay: Induction of change in ribosomal protein L26 protein level in iTRAQ-116 labelled secreted fraction of drug-susceptible Aspergillus fumigatus KU80 delta-akuB at 0.12 ug/ml after 48 hrs in YPD medium by MS (MS/MS) analysis relative to control
# Aspergillus fumigatus [7] = assay: Induction of change in nucleoside diphosphate kinase protein level in iTRAQ-116 labelled secreted fraction of drug-susceptible Aspergillus fumigatus KU80 delta-akuB at 0.12 ug/ml after 48 hrs in YPD medium by MS (MS/MS) analysis relative to control
# Aspergillus fumigatus [8] = assay: Induction of change in conserved hypothetical locus AFUA_2G15580 gene expression in drug-susceptible Aspergillus fumigatus KU80 delta-akuB at 0.12 ug/ml after 24 hrs in YPD medium by microarray analysis relative to control
# Aspergillus fumigatus [9] = assay: Induction of change in Ctr copper transporter family gene expression in drug-susceptible Aspergillus fumigatus KU80 delta-akuB at 0.12 ug/ml after 24 hrs in YPD medium by microarray analysis relative to control
# Aspergillus fumigatus [10] = assay: Induction of change in ribosomal protein S10 gene expression in drug-susceptible Aspergillus fumigatus KU80 delta-akuB at 0.12 ug/ml after 24 hrs in YPD medium by microarray analysis relative to control
# Aspergillus fumigatus [11] = assay: Induction of change in fructose-bisphosphate aldolase, class II protein level in iTRAQ-116 labelled secreted fraction of drug-susceptible Aspergillus fumigatus KU80 delta-akuB at 0.12 ug/ml after 48 hrs in YPD medium by MS (MS/MS) analysis relative to control
# Aspergillus fumigatus [12] = assay: Induction of change in mycelial catalase Cat1 protein level in iTRAQ114 labelled cell wall fraction of drug-susceptible Aspergillus fumigatus KU80 delta-akuB at 0.12 ug/ml after 24 hrs in YPD medium by MS (MS/MS) analysis relative to control
# Aspergillus fumigatus [13] = assay: Induction of change in hypothetical gene locus AFUA_8G00970 expression in drug-susceptible Aspergillus fumigatus KU80 delta-akuB at 0.12 ug/ml after 48 hrs in YPD medium by microarray analysis relative to control
# Aspergillus fumigatus [14] = assay: Induction of change in 60s ribosomal protein yl6 gene expression in drug-susceptible Aspergillus fumigatus KU80 delta-akuB at 0.12 ug/ml after 24 hrs in YPD medium by microarray analysis relative to control
# Aspergillus fumigatus [15] = assay: Induction of change in GPI-anchored cell wall organization protein Ecm33 protein level in iTRAQ-116 labelled cell wall fraction of drug-susceptible Aspergillus fumigatus KU80 delta-akuB at 0.12 ug/ml after 48 hrs in YPD medium by MS (MS/MS) analysis relative to control
# Aspergillus fumigatus [16] = assay: Induction of change in GPI-anchored cell wall organization protein Ecm33 protein level in iTRAQ-116 labelled cell wall fraction of drug-resistant Aspergillus fumigatus EMFR-S678P at 0.12 ug/ml after 48 hrs in YPD medium by MS (MS/MS) analysis relative to control
# Aspergillus fumigatus [17] = assay: Induction of change in outer mitochondrial membrane protein porin protein level in iTRAQ-116 labelled cell wall fraction of drug-susceptible Aspergillus fumigatus KU80 delta-akuB at 0.12 ug/ml after 48 hrs in YPD medium by MS (MS/MS) analysis relative to control
# Aspergillus fumigatus [18] = assay: Induction of change in antigenic mitochondrial protein HSP60, putative protein level in iTRAQ114 labelled secreted fraction of drug-resistant Aspergillus fumigatus EMFR-S678P at 0.12 ug/ml after 24 hrs in YPD medium by MS (MS/MS) analysis relative to control
# Aspergillus fumigatus [19] = assay: Induction of change in heat shock protein Hsp98/Hsp104/ClpA, putative protein level in iTRAQ-118 labelled cell wall fraction of drug-resistant Aspergillus fumigatus EMFR-S678P at 0.12 ug/ml after 48 hrs in YPD medium by MS (MS/MS) analysis relative to control
# Aspergillus fumigatus [20] = assay: Induction of change in hypothetical protein locus AFUA_3G14940 level in iTRAQ-116 labelled secreted fraction of drug-resistant Aspergillus fumigatus EMFR-S678P at 0.12 ug/ml after 48 hrs in YPD medium by MS (MS/MS) analysis relative to control
# Aspergillus fumigatus [21] = assay: Induction of change in phosphoglycerate kinase PgkA, putative protein level in iTRAQ-116 labelled secreted fraction of drug-resistant Aspergillus fumigatus EMFR-S678P at 0.12 ug/ml after 48 hrs in YPD medium by MS (MS/MS) analysis relative to control
# Aspergillus fumigatus [22] = assay: Induction of change in transaldolase protein level in iTRAQ114 labelled secreted fraction of drug-susceptible Aspergillus fumigatus KU80 delta-akuB at 0.12 ug/ml after 24 hrs in YPD medium by MS (MS/MS) analysis relative to control
# Aspergillus fumigatus [23] = assay: Induction of change in ATP citrate lyase subunit (Acl), putative protein level in iTRAQ114 labelled secreted fraction of drug-susceptible Aspergillus fumigatus KU80 delta-akuB at 0.12 ug/ml after 24 hrs in YPD medium by MS (MS/MS) analysis relative to control
# Aspergillus fumigatus [24] = assay: Induction of change in CipC-like antibiotic response protein, putative protein level in iTRAQ-118 labelled cell wall fraction of drug-susceptible Aspergillus fumigatus KU80 delta-akuB at 0.12 ug/ml after 24 hrs in YPD medium by MS (MS/MS) analysis relative to control
# Aspergillus fumigatus [25] = assay: Induction of change in peptidyl-prolyl cis-trans isomerase protein level in iTRAQ-118 labelled cell wall fraction of drug-susceptible Aspergillus fumigatus KU80 delta-akuB at 0.12 ug/ml after 24 hrs in YPD medium by MS (MS/MS) analysis relative to control
smiles,measurement,setting,value
CC[C@H](C)C[C@H](C)CCCCCCCCC(=O)N[C@H]1C[C@@H](O)[C@@H](NCCN)NC(=O)[C@@H]2[C@@H](O)CCN2C(=O)[C@H]([C@H](O)CCN)NC(=O)[C@H]([C@H](O)[C@@H](O)c2ccc(O)cc2)NC(=O)[C@@H]2C[C@@H](O)CN2C(=O)[C@H]([C@@H](C)O)NC1=O [CASPOFUNGIN],fold change (FC),Aspergillus fumigatus [1],2.8
same,fold change (FC),Aspergillus fumigatus [2],4
same,fold change (FC),Aspergillus fumigatus [3],-6.5
same,fold change (FC),Aspergillus fumigatus [4],-3.6
same,fold change (FC),Aspergillus fumigatus [5],1.1
same,fold change (FC),Aspergillus fumigatus [6],2.1
same,fold change (FC),Aspergillus fumigatus [7],3.7
same,fold change (FC),Aspergillus fumigatus [8],-6.8
same,fold change (FC),Aspergillus fumigatus [9],-5
same,fold change (FC),Aspergillus fumigatus [10],7.8
same,fold change (FC),Aspergillus fumigatus [11],1.2
same,fold change (FC),Aspergillus fumigatus [12],-1.5
same,fold change (FC),Aspergillus fumigatus [13],-2.6
same,fold change (FC),Aspergillus fumigatus [14],3.8
same,fold change (FC),Aspergillus fumigatus [15],2.3
same,fold change (FC),Aspergillus fumigatus [16],1.07
same,fold change (FC),Aspergillus fumigatus [17],-1.7
same,fold change (FC),Aspergillus fumigatus [18],1.15
same,fold change (FC),Aspergillus fumigatus [19],-1.15
same,fold change (FC),Aspergillus fumigatus [20],-1.32
same,fold change (FC),Aspergillus fumigatus [21],-1.07
same,fold change (FC),Aspergillus fumigatus [22],2.1
same,fold change (FC),Aspergillus fumigatus [23],3.5
same,fold change (FC),Aspergillus fumigatus [24],-3.2
same,fold change (FC),Aspergillus fumigatus [25],-2
